In US20130315927A1 (Novartis, published 2013) one finds binding data, which are given here for 5 molecules.

The chains behind the UniProt entries cited, without tags or fusion partners. Where a name states a change or a piece, a line headed by the entry shows the natural chain unless it says otherwise.
UniProt Q8NBP7: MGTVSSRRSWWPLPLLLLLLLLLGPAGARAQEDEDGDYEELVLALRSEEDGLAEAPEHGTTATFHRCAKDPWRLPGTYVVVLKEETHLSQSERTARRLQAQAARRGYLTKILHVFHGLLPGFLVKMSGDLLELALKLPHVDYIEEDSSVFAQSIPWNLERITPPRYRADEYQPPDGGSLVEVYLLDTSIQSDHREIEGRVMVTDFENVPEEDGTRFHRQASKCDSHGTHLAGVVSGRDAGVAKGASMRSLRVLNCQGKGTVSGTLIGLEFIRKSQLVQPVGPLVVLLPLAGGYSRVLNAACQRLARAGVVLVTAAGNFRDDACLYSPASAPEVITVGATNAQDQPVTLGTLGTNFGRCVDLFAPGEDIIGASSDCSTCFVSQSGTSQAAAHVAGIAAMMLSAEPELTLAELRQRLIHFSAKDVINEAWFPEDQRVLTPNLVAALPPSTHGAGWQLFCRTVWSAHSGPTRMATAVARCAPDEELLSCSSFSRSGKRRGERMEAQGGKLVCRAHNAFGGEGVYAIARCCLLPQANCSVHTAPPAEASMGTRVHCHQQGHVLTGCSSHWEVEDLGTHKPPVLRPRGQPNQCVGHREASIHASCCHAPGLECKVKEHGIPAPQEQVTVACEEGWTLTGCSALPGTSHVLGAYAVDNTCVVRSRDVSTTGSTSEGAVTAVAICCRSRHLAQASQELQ

In experiment [1] the target is recombinant human PCSK9 (aa 31-692) with C-terminal His6 tag (human) (UniProt Q8NBP7). Put plainly: solution equilibrium titration (SET): soluble human PCSK9 titrated against 100 pM antibody, free antibody captured on a Pcsk9-coated MSD plate, electrochemiluminescence.
In another experiment the target is Klotho-His. Put plainly: specificity ELISA, antigen coated at 88 ng per well, absorbance 650 nm.
Experiment [2] concerns the target recombinant human PCSK9 (aa 31-692) with C-terminal His6 tag (human) (UniProt Q8NBP7). As to the kind of experiment: specificity ELISA. In general terms: ELISA stands for enzyme-linked immunosorbent assay.
For experiment [3] the target is unchanged. Put plainly: specificity ELISA, antigen coated at 88 ng per well, antibody at 2 µg/mL, absorbance 650 nm.
The target is the same in experiment [4]. Put plainly: solution equilibrium titration (SET).
Experiment [5] shares this target. Put plainly: ELISA as the text says (the legend of FIGS. 5A-C describes a fitted Kd).
For experiment [6] the target is unchanged. Put plainly: TR-FRET blocking assay: antibody titrated on 8 nM hPcsk9-AF, blocked ligand 1 nM hLDL-R-Eu. For orientation: Time-resolved FRET reads energy transfer from a long-lived donor to a nearby acceptor.
For experiment [7], the target named is biotinylated PCSK9-Avi-His6 (human) (UniProt Q8NBP7). Put plainly: ForteBio Octet bio-layer interferometry. Background: Biolayer interferometry detects binding as a change in optical thickness at a sensor tip.
The target in experiment [8] is recombinant human PCSK9 (aa 31-692) with C-terminal His6 tag (human) (UniProt Q8NBP7). As to the kind of experiment: dilution ELISA with purified Fabs.

Substitutions are numbered along the chain they refer to. No constants are given. Whether binding was seen depends on the method and setting. For some assays here: A result given as binding can be weak or reduced; the word gives no strength.

B1: Humaneered antibody MAB2 (antibody, human IgG1, V domains shown)
VH: QITLKESGPVLVKPTETLTLTCTVSGFSLSTSGVGVGWIRQPPGKALEWLADIWWDDNKYYNPSLKSRLTISKDTSKNQVVLTMTNMDPVDTATYYCARITTEGGFAYWGQGTLVTVSS
VL: DIQMTQSPSSLSASVGDRVTITCRAGQRISHNLHWYQQKPDESPRLLINFASRLISGVPSRFSGSGSGTDFTLTISSLQPEDFATYYCQQSNYWPLTFGQGTKLEIK
Regarding B1, the binding entry in experiment [1] is recorded as “binds”; with Klotho-His, “no binding (tested: 2 µg/mL (single concentration))”; in experiment [2], “binds”; in experiment [3], “binds”; in [4], “binds”; in [5], “binds”. Further, the binding entry in [6] was “binds”.

B2: candidate Fab with the heavy chain of Clone 37 and the light chain of Clone 45 (Fab form of MAB3) (Fab, V domains shown)
VH: B1 VH with I2V, V10T, E16Q, P42S
VL: B1 VL
On to B2, for which the binding result in experiment [7] was “binds”.

B3: Humaneered antibody MAB3 (antibody, human IgG1, V domains shown)
VH: B1 VH with I2V, V10T, E16Q, P42S
VL: B1 VL
Take B3: the binding entry in experiment [1] is listed as “binds”; in the experiment with Klotho-His, “no binding (tested: 2 µg/mL (single concentration))”; in experiment [2], “binds”; in experiment [3], “binds”; in [4], “binds”; in experiment [5], “binds”. Moreover, in experiment [6], the binding result was “binds”.

B4: mouse monoclonal antibody MAB1 (antibody, V domains shown)
VH: QVTLKESGPGILQPSQTLSLTCSFSGFSLSTSGMGVGWIRQPSGEGLEWLADIWWDDNKYYNPSLKSRLTVSKDTSSNQVFLKITSVDTADTATYYCALITTEGGFAYWGQGTLVTVSA
VL: DIVLTQSPATLSVTPGDSVSLSCRASQSINNNLHWYQQKSHESPRLLIKFASRSISGIPSKFSGSGSGTDFTLSINSVETEDFGMYFCQQSNYWPLTFGAGTNLELI
notes: also called parent mouse monoclonal antibody; murine anti-human Pcsk9 IgG1-kappa monoclonal antibody
Regarding B4, the binding result with Klotho-His is “no binding (tested: 2 µg/mL (single concentration))”.

B5: reference Fab SR101-B1 (Fab, V domains shown)
VH: B4 VH
VL: B4 VL
For B5, in experiment [8], the binding result is given as “binds”.
